Results from publication PMC11211510, “Sequence-specific dynamic DNA bending explains mitochondrial TFAM’s dual role in DNA packaging and transcription initiation”.

Experiments:
[1] = biological target: T1, TFAM-ΔC26 (C-tail deletion) (UniProt Q00059); experiment: fluorescence anisotropy; conditions: discrimination for LSP lost, Kd only in Fig. 4J; 50 mM Tris acetate pH 7.5, 100 mM Na glutamate, 50 mM NaCl, 10 mM Mg acetate, 0.5 mM TCEP, 0.01% Tween 20, 0.1 mg/ml BSA, 25 °C; 5 nM DNA, 0-75 nM TFAM; recombinant protein; residues 43-220; protein details: SUMO fusion, cleaved; label: fluorescein (FITC) at 3' end of template strand
T1 sequence (looked up): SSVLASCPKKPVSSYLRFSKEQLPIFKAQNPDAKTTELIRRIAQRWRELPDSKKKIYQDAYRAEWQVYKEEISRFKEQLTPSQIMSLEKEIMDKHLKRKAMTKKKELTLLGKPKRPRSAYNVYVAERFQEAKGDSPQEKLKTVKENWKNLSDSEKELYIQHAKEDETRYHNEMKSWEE

[2] = biological target: T1, TFAM-ΔC26 (C-tail deletion); experiment: smFRET; conditions: biotin-2xPEG18 at 3' end of template; 50 mM Tris acetate pH 7.5, 100 mM Na glutamate, 50 mM NaCl, 10 mM Mg acetate, 0.5 mM TCEP, 0.01% Tween 20, 0.1 mg/ml BSA, 25 °C; 5 nM DNA, 0-75 nM TFAM; recombinant protein; residues 43-220; protein details: SUMO fusion, cleaved
[3] = biological target: T1, TFAM-ΔC26 (C-tail deletion); experiment: PIFE (single-molecule); conditions: 50 mM Tris acetate pH 7.5, 100 mM Na glutamate, 50 mM NaCl, 10 mM Mg acetate, 0.5 mM TCEP, 0.01% Tween 20, 0.1 mg/ml BSA, 25 °C; 5 nM DNA, 0-75 nM TFAM; recombinant protein; residues 43-220; protein details: SUMO fusion, cleaved; label: Cy3 at 5' end of template or non-template strand

TGTGTTAGTTGGGGGGTGACTGTTAAAAGT (double strand) [LSP (-41 to -12), fluorescein]
binding result [1]: binds more weakly

TGTGTTAGTTGGGGGGTGACTGTTAAAAGT (double strand) [LSP, Atto565/Atto647N]
binding result [2]: binds

TGTGTTAGTTGGGGGGTGACTGTTAAAAGT (double strand) [LSP, Cy3]
binding result [3]: binds

Construct, isoform or probe ends are uncertain for at least one entry. For part of these data: Weaker means in comparison with the reference protein, sequence or condition of that experiment. At least one verdict rests on a figure or table, not on a statement of the authors. Tags and fusion partners may be left off the protein sequences shown.
